Measured values taken from PubChem BioAssay AID2592 (National Center for Advancing Translational Sciences (NCATS), 2010).
The inconclusive results got no clear call from the source; some entries with a clear call stand among them for comparison. Where the call is inconclusive, the potency comes from a doubtful curve fit. The source made the active and inactive calls. The call rests on the fitted dose curve; in most records, active means well fitted inhibition curve with a large enough effect; inconclusive means small, poorly fitted or top-dose-only effect, or effect the other way; inactive means flat fitted curve, though single readings scatter.

Chains of the proteins cited; added tags and fusions are not shown. Lines headed by an entry give the natural chain unless they say otherwise; changes in a name come on top.
UniProt P04062: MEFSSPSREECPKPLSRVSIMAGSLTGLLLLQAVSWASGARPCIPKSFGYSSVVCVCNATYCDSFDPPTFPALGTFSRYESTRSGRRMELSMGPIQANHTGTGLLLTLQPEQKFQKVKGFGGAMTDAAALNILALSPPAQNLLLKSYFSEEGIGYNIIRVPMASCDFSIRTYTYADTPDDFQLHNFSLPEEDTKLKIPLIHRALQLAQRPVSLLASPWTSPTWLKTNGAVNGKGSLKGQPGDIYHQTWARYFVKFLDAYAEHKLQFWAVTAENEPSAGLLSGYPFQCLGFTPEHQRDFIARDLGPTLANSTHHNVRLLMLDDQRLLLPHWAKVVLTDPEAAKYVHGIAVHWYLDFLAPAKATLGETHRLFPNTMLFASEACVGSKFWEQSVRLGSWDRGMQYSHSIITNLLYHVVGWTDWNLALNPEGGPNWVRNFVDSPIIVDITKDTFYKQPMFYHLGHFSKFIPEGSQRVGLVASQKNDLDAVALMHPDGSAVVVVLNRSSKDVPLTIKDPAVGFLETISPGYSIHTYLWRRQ

biological target: Lysosomal acid glucosylceramidase (Homo sapiens) (UniProt P04062); test: qHTS Assay for Inhibitors and Activators of N370S glucocerebrosidase as a Potential Chaperone Treatment of Gaucher Disease: Activity in Non-Mutant Spleen Homogenate; conditions: human spleen homogenate GC, 4MU-glucoside fluorescence; series mostly up to 57.5 µM; activity change, negative = inhibition: at the top concentration
Text: NIH Chemical Genomics Center [NCGC] NIH Molecular Libraries Probe Production Centers Network [MLPCN] MLPCN Grant: MH086442-01 Assay Submitter (PI): Wei Zheng Glucocerebrosidase (GC) catalyzes the hydrolysis of beta-glucocerebroside to glucose and ceramide in lysosomes. Mutations in the glucocerebrosidase gene result in Gaucher disease, an autosomal recessive lysosomal storage disorder. Many of the mutations encountered in patients with Gaucher disease are missense alterations that may cause misfolding, decreased stability and/or mistrafficking of this lysosomal protein. […] These inhibitors include iminosugar analogs and three non-iminosugar inhibitors identified from a previous HTS of 62,000 compounds with the wild type recombinant enzyme. However, the enhancement of enzyme activity by the chaperone action of an enzyme inhibitor must be balanced against the direct inhibition of the enzyme. An enzyme activator could also function as a chaperone by binding to the enzyme and helping to correct its misfolding and mistrafficking. While activators for GC have not yet been identified, they may have better therapeutic potential than inhibitors. Therefore the discovery and development of chemical activators may provide a new strategy for the chaperone therapy. We have optimized a new assay using N370S mutant GC derived from the spleen of a Gaucher patient. […] In addition, the MLPCN compound library has expanded, which increases the chance of finding new and better probes. This confirmation assay tests for compound activity in spleen homogenate containing wildtype enzyme.
NCGC Assay Protocol Summary: This is a fluorogenic enzyme assay with 4-methylumbelliferyl-beta-D-glucopyranoside as the substrate and wildtype glucocerebrosidase from human spleen homogenate as the enzyme preparation. Upon the hydrolysis of this fluorogenic substrate, the resulting product, […] which can be detected by a standard fluorescence plate reader. Data were normalized to the controls for basal activity (without enzyme) and 100% activity (with enzyme). The AC50 values were determined from concentration-response data modeled with the standard Hill equation. Assay buffer: 50 mM citric acid (titrated with potassium phosphate to pH 5.0), 100 mM potassium chloride, 10 mM sodium chloride, 1 mM magnesium chloride, 0.01% Tween-20. 1536-well assay protocol: (1) Add 2 ul/well of spleen homogenate (27 ug final) (2) Add 23 nL compounds in DMSO solution. The final titration was 0.5 nM to 58 uM. (3) Add 2 ul of substrate (1 mM final) (4) Incubate at 37C for 40 min. (5) Add 2 ul stop solution (1M NaOH and 1M Glycine mixture, pH 10) (6) Detect the assay plate in a ViewLux plate reader (PerkinElmer) with Ex=365 nm and Em=440nm. Keywords: Glucocerebrosidase, beta-glucosidase, Gaucher Disease, pharmacological chaperone, chaperone therapy, high throughput screening, glucocerebrosidase inhibitor, MLSMR, MLSCN, NIH Roadmap, qHTS and NCGC

Row | SMILES | activity change, negative = inhibition | Potency
1 | CC(C)C(C)NC(=O)CSc1nc2scc(-c3ccco3)c2c(=O)n1-c1ccccc1 (stereo not given) | inactive: 6.76% | –
2 | O=C(COc1ccccc1C(=O)c1cnn(-c2ccccc2)c1)Nc1ccccc1 | – | inconclusive: 3.16 µM [activator, full curve]
3 | Cc1cc(C)n2ncc(C(=O)Nc3ccc(Cl)c(Cl)c3)c2n1 | – | inconclusive: 4.47 µM [activator, full curve]
4 | O=S(=O)(c1ccc2c(c1)OCCO2)N1CCN(c2nc(-c3cccs3)nc3ccccc23)CC1 | – | active: 0.447 µM
5 | CC(C)(C)C(=O)OCCNc1nc(-c2ccccc2)nc2ccccc12 | – | active: 2.24 µM
6 | NS(=O)(=O)c1ccc(S(=O)(=O)N2CCN(c3nc(-c4cccs4)nc4ccccc34)CC2)cc1 | – | active: 5.01 µM
7 | Cc1ccc(NC(=O)COc2ccccc2C(=O)Nc2ccccc2)cc1Cl | – | inconclusive: 6.31 µM [activator, full curve]
8 | CCC(C)c1ccc(NC(=O)c2cnn3c(C(F)F)cc(C)nc23)cc1 (stereo not given) | – | inconclusive: 3.16 µM [activator, full curve]
9 | Cc1ccc(Cl)cc1NC(=O)c1ccccc1OCC(=O)Nc1ccc(Cl)cc1 | – | inconclusive: 2.24 µM [activator, full curve]
10 | O=S(=O)(c1ccccc1C(F)(F)F)N1CCN(c2nc(-c3cccs3)nc3ccccc23)CC1 | – | active: 0.398 µM
11 | O=S(=O)(c1ccc2ccccc2c1)N1CCN(c2nc(-c3cccs3)nc3ccccc23)CC1 | – | active: 0.282 µM
12 | COc1ccccc1C(=O)COC(=O)c1ccccc1OCC(=O)Nc1ccc(SC(F)F)cc1 | – | inconclusive: 6.31 µM [activator, full curve]
13 | N#Cc1ccc(S(=O)(=O)N2CCN(c3nc(-c4cccs4)nc4ccccc34)CC2)cc1 | – | active: 2.51 µM
14 | Cc1cc(C)cc(N(CC(=O)NC2CCCCCC2)S(=O)(=O)c2c(C)[nH]c(=O)[nH]c2=O)c1 | – | active: 0.562 µM
15 | O=C(Nc1cnn(Cc2ccc(F)cc2)c1)c1cnn2c(C(F)F)cc(-c3ccccc3)nc12 | – | inconclusive: 3.55 µM [activator, full curve]

Full records, looked up by structure:
O=C(Nc1cnn(Cc2ccc(F)cc2)c1)c1cnn2c(C(F)F)cc(-c3ccccc3)nc12 in the list: Potency: inconclusive: 3.55 µM [activator, full curve]
O=S(=O)(c1ccc2c(c1)OCCO2)N1CCN(c2nc(-c3cccs3)nc3ccccc23)CC1 in the list: Potency: active: 0.447 µM
